# According to the supplement of paper PMC10338343:
# ± gives the standard deviation. This is one part of the list. Many entries were measured with a wide error.
# Tested on: EfPiwi piRISC loaded with L1MC piRNA (26 nt)
# Experiment: pre-steady-state target cleavage rate (min^-1); guide: L1MC piRNA 5'p-UAACUAAAUACUAUGCAAGCUGUAGG; MIWI and MILI are mouse PIWI proteins and EfPiwi is from a freshwater sponge; tags in brackets are library labels; higher = faster piRNA-guided slicing of the target
# Conditions: auxiliary factor: 500 nM Ephydatia muelleri Gtsf1
# How it was run: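 With or without 500 nM GTSF1 partner protein, 1 nM active affinity-purified piRISC carrying one synthetic guide was mixed with 0.1 nM transcribed, DNA-blocked target RNA library in HEPES–potassium acetate buffer at 33 °C for 0–8 or 0–960 min. Uncleaved targets were sequenced and normalised to depth and to weakly complementary targets, three trials were pooled, and k3 was capped at 0.0001 min^-1. The pre-steady-state cleavage rate came from a burst-and-steady-state fit.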
row,Sequence,pre-steady-state target cleavage rate
1,UCCUGGAUCAGCUUGCAUACUAAUUAGUUA,0.00158 ± 0.0023
2,UCCUGGAACAGCUUGCAUAGUAUUAGUUA,0.00229 ± 0.0021
3,UCCUGGAUCAGCUAGCAUAGUAUAUAGUUA,0.0015 ± 0.0035
4,UCCUCCACAGCUUGCAUAGUAUUUAGUUA,0.0564 ± 0.018
5,UCCUGCUACAGCUUGCAUAGUAUUAAGUUA,0.0064 ± 0.0019
6,UCCUGGAACAGCUUGCAUAGUAUUUAGUAA,0.00976 ± 0.0038
7,UCCUGGAUGUCGAACGUAAGUAUUUAGAAA,0.000201 ± 0.036
8,UCCUCGUACAGCUUGCAUAGUAUUAAGUUA,0.00547 ± 0.0018
9,UCCUCCAACUGCUUGCAUAGUAUUUAGUUA,0.0183 ± 0.0064
10,UCCUGCUACAGCUUGCUUACUAUUUAGUUA,0.0113 ± 0.005
11,UCCUGGUACACCUUGCUUAGUAUUUAGUUA,0.00384 ± 0.0027
12,UCCUCCUACAGGUUGCAUAGUAAUUAGUUA,0.0115 ± 0.0031
13,UCCUGGAUGACCUUGCAUAGUAUUUACUUA,0.00136 ± 0.007
14,UCCUCCUACACGUUGCAUAGUAUUUAGUAA,0.00566 ± 0.0027
15,UCCUGGUAGAGCUUGCAAAGUAUUUAGUUA,0.0322 ± 0.0099
16,UCCUGGAUCAGUUGCAUAGUAUUUAGUUA,0.0258 ± 0.0051

row,Sequence,pre-steady-state target cleavage rate
1,UCCUGGUACAGCUUGCAUAGUAAUUACUUA,0.00196 ± 0.0047
2,UCCUGGAUGUCGAACGUAUGUAUUUUGUUA,< 0.0001
3,UCCUCCUACACGCUUGCAUAGUAUUUAGUUA,0.00856 ± 0.003
4,UCCUCCUACAGCUUGCAUAGUAUUAUGUUA,0.0049 ± 0.0026
5,UCCUCCUACAGCUUGGAUAGUAAUUAGUUA,0.0274 ± 0.0089
6,UCCUGGAUGUCGAACGUUGAGUAUUUAGUUA,0.000285 ± 0.019
7,UCCUGGAUCAGCUUGCAUACUAUUUAGAUA,0.00158 ± 0.0036
8,UCCUGGAUCACCUUGGAUAGUAUUUAGUUA,0.00371 ± 0.0037
9,UCCUGGUACAGCUUGCAUAGUAUUUAUUUA,0.00732 ± 0.0063
10,UCCUGCUAUCAGCUUGCAUAGUAUUUAGUUA,0.0613 ± 0.015
11,UCCUGGAUGUCCUUGCAUAGUUUUUAGUUA,0.00455 ± 0.003
12,UCCUCCUUCAGCAUGCAUAGUAUUUAGUUA,0.0621 ± 0.018
13,UCCUGGAUGUGCUGGCAUAGUAUUUAGUUA,0.00525 ± 0.0029
14,UCCUGGUACAGCUUGCUUAGUAUAUAGUUA,0.0737 ± 0.025
15,UCCUGGAUGAGCUCUGCAUAGUAUUUAGUUA,0.00721 ± 0.0028

# In another format: results already given.
row	Sequence	pre-steady-state target cleavage rate
3	UCCUGGAUCAGCUAGCAUAGUAUAUAGUUA	0.0015 ± 0.0035
4	UCCUCCACAGCUUGCAUAGUAUUUAGUUA	0.0564 ± 0.018

# Same assay, conditions: auxiliary factor: none (no Gtsf1)
row,Sequence,pre-steady-state target cleavage rate
1,UCCUGGAUGUCGAACGUAUGUAUCUAGUUA,0.000136 ± 0.033
2,UCCUCCUACAGCUUGCAUAGAAUUUAGAUA,0.000291 ± 0.013
3,UCCUGGAUGUCGAACGUUUGUAAUUAGUUA,< 0.0001
4,UCCUGCUACACCAUGCAUAGUAUUUAGUUA,0.000316 ± 0.018
5,UCCUGGUACAGCUUGGAUAGUAAUUAGUUA,0.00127 ± 0.0088
6,UCCUGGAUGUCGAACCAUAGAAAUUAGUUA,0.000101 ± 0.025
7,UCCUGGAUCAGCUUGCAAUAGUAUUUAGUUA,0.00101 ± 0.0083
8,UCCUGGAACAGCUUGCGUAGUAUUUAGUUA,0.0011 ± 0.01
9,UCCUGGUACAGCAAGCAUAGUAUUUAGUUA,0.000467 ± 0.016
